Results are given in words; binding and its absence hold for the method and conditions named. In cells and extracts the contact can be indirect. Some binding calls cover weakened binding; strength is not graded here.
Molecular target: KMT2D (human (endogenous in OCI-Ly7 and SU-DHL4)) (UniProt O14686)
Assay: co-IP

Chains of the proteins cited; added tags and fusions are not shown.
UniProt O14686: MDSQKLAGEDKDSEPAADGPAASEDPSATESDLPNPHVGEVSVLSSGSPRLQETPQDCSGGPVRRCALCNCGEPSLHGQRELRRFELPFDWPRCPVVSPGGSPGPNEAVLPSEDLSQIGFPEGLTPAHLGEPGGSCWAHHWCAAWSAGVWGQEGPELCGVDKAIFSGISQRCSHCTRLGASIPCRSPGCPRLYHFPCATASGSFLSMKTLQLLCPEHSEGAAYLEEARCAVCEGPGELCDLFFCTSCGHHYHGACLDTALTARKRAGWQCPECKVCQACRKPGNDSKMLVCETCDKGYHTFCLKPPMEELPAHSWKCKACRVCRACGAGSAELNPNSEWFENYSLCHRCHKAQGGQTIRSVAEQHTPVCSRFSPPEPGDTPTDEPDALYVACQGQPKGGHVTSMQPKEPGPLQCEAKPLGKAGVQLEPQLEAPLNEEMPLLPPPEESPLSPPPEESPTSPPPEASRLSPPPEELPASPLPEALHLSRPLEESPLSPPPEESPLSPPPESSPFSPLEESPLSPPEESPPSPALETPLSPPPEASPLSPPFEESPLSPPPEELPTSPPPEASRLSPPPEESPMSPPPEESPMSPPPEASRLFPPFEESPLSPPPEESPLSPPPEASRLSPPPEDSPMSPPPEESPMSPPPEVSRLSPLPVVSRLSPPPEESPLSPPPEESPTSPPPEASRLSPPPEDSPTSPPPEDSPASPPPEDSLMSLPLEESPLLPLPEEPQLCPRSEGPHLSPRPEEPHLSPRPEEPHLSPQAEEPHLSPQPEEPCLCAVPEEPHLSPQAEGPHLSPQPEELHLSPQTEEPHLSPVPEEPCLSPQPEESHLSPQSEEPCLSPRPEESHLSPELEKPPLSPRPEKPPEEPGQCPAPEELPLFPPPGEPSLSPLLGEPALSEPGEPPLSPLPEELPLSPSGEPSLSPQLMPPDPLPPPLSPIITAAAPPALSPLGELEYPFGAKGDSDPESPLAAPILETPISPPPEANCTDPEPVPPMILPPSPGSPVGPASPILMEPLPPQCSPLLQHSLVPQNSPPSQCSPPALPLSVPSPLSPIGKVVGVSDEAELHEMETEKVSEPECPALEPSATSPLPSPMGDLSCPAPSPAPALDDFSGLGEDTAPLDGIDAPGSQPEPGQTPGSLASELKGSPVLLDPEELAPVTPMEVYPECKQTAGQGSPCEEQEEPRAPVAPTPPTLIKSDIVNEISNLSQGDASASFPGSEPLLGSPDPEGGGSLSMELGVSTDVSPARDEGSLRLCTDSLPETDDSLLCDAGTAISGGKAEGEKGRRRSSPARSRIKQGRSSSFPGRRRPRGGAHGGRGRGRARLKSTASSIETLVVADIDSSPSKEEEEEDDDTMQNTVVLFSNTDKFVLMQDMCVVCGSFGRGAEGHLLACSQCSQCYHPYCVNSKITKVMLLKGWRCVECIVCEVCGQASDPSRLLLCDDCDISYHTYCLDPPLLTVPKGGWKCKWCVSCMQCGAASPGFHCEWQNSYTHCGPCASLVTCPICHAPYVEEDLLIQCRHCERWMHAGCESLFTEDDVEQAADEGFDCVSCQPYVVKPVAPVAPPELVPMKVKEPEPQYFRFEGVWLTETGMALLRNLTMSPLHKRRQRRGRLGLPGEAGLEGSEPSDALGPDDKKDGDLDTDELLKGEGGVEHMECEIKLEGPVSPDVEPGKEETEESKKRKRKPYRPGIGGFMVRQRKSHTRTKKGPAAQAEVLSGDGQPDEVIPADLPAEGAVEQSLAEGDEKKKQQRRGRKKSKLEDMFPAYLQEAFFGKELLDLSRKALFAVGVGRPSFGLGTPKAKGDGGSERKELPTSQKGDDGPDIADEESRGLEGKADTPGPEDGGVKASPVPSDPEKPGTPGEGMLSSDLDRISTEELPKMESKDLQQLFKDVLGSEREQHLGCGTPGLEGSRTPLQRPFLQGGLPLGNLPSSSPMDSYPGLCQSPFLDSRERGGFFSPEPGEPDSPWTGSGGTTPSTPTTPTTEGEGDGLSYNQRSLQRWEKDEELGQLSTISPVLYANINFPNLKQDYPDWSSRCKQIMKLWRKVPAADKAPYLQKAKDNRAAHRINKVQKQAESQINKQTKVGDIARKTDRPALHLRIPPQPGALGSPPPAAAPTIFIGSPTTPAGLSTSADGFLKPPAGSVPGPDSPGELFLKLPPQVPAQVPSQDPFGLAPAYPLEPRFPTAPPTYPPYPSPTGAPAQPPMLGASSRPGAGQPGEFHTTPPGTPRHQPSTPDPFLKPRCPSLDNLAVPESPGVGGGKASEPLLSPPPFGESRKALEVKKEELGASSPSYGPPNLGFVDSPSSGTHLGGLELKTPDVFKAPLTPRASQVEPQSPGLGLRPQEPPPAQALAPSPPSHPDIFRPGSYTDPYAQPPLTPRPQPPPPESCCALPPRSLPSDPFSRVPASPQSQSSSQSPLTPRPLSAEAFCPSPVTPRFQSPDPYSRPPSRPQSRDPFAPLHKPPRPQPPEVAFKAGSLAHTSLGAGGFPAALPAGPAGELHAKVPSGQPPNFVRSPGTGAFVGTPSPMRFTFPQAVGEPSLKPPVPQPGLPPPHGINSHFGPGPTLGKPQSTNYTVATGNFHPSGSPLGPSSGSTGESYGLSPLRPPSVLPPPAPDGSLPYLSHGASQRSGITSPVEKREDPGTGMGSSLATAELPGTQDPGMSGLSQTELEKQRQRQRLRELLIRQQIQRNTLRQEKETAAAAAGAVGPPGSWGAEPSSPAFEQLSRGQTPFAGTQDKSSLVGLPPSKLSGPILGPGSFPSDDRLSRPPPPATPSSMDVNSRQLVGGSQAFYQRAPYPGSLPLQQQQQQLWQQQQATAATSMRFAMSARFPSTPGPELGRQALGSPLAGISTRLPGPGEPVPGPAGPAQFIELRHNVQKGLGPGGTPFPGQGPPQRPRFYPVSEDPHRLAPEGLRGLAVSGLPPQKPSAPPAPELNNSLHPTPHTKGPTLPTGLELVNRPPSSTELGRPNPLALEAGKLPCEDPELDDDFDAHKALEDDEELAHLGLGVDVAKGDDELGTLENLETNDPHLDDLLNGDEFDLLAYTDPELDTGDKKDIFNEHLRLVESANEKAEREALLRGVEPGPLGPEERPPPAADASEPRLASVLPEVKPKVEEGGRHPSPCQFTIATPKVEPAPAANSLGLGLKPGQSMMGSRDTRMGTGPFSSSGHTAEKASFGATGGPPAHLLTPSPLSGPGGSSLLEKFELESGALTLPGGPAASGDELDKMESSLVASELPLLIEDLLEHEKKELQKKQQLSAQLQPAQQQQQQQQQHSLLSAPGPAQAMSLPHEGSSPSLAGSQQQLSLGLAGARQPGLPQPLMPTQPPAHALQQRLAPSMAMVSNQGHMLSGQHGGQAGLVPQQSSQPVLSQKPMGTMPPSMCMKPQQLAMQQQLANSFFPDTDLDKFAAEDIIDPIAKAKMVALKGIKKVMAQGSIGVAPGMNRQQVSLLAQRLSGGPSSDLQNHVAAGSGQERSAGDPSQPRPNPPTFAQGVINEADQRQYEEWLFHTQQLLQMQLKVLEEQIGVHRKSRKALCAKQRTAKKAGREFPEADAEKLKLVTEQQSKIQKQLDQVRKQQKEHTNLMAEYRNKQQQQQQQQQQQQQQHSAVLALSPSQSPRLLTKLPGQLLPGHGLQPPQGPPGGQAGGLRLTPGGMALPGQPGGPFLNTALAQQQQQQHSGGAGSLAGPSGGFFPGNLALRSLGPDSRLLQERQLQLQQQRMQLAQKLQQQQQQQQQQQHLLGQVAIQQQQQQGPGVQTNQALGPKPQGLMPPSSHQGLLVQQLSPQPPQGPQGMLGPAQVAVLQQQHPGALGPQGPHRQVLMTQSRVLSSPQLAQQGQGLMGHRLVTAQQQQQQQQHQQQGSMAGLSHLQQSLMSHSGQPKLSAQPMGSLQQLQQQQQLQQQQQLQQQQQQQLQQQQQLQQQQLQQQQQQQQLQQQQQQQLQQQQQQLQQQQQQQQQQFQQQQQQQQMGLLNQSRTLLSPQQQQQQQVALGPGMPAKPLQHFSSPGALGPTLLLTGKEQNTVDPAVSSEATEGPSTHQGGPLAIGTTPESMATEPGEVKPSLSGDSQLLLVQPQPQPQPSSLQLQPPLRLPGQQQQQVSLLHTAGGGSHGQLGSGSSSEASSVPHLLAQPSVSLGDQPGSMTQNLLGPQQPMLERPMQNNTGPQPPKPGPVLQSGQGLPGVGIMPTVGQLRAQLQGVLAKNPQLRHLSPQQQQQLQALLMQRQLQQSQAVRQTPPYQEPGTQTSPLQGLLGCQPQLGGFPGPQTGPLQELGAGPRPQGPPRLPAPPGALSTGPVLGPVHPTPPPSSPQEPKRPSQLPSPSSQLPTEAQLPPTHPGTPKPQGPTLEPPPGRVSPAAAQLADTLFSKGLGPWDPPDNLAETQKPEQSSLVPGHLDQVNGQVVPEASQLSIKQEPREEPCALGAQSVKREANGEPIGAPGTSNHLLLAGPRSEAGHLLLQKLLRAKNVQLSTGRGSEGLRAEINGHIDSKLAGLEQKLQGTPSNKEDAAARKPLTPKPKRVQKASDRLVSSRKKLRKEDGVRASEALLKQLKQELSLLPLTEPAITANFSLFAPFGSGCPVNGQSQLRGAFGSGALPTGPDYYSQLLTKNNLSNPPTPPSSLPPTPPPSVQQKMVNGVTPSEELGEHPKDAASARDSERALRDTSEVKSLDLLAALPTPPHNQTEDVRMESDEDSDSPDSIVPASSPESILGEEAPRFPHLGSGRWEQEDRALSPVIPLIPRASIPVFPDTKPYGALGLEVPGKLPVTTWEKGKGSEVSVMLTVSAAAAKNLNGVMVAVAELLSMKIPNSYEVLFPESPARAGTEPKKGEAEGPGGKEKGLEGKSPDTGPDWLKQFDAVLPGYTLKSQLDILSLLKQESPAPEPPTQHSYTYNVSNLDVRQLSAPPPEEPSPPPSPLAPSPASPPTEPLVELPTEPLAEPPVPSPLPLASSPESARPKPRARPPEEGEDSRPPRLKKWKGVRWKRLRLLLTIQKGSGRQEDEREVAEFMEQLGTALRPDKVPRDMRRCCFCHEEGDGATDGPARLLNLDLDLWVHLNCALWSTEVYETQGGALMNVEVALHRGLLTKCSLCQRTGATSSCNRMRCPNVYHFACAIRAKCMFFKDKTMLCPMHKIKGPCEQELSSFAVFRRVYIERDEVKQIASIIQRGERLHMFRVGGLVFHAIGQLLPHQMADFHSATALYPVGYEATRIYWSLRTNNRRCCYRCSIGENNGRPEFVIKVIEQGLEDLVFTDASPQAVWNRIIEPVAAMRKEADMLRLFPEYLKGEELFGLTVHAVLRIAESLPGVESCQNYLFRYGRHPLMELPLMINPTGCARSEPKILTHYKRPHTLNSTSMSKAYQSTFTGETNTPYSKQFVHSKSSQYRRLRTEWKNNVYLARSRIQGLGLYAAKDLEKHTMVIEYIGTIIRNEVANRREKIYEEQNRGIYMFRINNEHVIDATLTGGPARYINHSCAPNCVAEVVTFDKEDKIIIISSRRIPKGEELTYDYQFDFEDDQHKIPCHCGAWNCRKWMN

CREBBP (from UniProt Q92793 1-2442)
binding: binds
